# Laboratory results taken from the supplement of paper PMC10849652.
# By UniProt entry, the sequences of proteins in these tests, tags left out. Where a name states a change or a piece, a line headed by the entry shows the natural chain unless it says otherwise.
# UniProt O43826: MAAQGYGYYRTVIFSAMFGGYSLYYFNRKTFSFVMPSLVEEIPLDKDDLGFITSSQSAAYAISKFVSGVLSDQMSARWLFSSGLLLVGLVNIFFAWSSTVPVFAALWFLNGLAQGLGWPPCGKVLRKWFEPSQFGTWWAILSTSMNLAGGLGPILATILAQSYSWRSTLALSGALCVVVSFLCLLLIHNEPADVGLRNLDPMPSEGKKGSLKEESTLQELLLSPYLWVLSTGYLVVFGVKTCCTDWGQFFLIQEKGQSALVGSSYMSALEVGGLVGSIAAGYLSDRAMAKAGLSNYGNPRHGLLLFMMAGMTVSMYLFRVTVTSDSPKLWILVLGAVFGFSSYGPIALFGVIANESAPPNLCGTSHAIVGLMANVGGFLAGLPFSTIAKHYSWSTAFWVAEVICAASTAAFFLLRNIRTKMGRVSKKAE
# UniProt Q01650: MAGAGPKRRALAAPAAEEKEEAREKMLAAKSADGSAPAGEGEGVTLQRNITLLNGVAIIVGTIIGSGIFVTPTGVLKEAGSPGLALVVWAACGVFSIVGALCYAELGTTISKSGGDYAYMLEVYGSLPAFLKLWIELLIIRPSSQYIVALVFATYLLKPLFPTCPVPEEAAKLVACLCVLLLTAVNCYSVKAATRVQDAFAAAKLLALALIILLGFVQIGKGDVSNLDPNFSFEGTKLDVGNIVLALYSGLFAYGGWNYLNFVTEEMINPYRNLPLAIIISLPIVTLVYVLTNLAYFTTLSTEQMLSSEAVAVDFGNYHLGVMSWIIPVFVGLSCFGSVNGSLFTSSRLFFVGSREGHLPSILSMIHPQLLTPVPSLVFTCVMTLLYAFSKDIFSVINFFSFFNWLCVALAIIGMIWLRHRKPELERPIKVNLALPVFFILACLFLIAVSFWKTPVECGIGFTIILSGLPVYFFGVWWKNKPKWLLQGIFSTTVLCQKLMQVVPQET
# UniProt Q8TBP6: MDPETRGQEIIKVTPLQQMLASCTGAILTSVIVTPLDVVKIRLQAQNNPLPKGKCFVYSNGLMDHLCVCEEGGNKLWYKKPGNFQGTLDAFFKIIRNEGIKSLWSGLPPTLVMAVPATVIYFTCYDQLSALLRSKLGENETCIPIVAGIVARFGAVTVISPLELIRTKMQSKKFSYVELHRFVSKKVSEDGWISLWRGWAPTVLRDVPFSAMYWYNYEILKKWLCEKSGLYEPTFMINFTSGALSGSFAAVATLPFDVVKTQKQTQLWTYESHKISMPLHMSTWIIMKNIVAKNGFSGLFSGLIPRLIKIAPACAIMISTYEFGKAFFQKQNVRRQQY
# UniProt Q8NBW4: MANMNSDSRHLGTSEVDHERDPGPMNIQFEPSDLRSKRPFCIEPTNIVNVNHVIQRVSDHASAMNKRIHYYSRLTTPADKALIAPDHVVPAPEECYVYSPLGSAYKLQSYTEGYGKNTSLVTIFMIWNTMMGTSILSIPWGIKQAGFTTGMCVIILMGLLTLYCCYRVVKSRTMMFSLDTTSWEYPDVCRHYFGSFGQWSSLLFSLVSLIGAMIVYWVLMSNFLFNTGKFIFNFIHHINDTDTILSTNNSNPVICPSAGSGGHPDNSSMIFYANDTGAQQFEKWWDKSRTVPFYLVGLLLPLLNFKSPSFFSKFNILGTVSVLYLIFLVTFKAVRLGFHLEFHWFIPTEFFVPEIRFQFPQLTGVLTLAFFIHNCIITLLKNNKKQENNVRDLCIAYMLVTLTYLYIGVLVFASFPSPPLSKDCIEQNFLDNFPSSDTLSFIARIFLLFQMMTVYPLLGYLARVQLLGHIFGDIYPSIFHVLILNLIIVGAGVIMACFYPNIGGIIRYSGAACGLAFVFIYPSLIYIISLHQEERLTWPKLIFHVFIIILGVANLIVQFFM
# UniProt Q9Y6M5: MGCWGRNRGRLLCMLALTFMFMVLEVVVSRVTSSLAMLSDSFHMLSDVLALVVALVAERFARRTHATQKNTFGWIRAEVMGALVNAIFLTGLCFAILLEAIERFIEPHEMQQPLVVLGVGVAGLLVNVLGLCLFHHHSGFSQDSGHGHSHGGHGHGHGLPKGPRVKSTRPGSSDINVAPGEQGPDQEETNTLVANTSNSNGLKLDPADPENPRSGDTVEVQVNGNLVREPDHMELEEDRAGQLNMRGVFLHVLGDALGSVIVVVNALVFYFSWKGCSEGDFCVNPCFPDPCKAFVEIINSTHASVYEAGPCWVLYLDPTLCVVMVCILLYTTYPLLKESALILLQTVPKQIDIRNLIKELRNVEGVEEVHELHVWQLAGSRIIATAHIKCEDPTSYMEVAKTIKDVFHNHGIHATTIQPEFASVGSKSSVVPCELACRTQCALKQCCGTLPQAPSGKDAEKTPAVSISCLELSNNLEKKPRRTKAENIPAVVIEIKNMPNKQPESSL
# UniProt Q9H0C2: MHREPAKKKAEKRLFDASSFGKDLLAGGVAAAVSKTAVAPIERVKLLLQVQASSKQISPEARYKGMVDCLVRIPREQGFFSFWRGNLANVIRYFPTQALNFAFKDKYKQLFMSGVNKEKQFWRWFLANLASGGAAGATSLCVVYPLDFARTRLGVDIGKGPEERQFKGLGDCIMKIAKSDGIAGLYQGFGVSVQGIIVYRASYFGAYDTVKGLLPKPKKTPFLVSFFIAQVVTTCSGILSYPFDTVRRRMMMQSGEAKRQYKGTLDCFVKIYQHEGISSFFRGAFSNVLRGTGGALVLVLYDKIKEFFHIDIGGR
# UniProt P11166: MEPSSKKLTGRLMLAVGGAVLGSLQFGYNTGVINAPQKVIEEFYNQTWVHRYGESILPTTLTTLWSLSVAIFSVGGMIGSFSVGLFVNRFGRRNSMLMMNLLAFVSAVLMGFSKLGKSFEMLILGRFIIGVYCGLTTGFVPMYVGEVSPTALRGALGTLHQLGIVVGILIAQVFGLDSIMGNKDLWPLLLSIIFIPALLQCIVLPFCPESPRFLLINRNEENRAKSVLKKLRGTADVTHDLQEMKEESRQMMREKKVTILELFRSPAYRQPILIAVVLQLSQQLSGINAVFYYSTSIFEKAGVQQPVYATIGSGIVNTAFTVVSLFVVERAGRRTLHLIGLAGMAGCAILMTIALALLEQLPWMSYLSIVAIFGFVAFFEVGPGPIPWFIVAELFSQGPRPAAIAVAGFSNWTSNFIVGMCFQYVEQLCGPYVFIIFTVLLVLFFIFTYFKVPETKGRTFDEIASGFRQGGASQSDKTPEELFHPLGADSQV
# UniProt Q9HC21: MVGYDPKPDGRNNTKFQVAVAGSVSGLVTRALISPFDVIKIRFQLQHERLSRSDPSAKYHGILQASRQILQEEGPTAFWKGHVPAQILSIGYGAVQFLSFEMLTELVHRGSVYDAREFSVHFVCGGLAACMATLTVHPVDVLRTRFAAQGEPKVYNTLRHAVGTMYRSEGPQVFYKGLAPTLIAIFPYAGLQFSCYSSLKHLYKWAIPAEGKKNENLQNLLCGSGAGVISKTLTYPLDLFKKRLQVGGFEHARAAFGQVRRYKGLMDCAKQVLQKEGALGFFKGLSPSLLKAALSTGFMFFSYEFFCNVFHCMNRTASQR
# UniProt Q9Y619: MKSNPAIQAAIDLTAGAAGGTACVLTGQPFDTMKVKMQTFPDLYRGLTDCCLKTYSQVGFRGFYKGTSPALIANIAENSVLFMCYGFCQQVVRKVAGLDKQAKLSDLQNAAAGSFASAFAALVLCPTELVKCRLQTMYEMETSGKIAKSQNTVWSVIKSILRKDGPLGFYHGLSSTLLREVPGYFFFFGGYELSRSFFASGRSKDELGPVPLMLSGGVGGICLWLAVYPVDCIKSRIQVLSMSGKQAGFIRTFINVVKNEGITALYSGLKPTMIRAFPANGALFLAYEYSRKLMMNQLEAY
# UniProt O75746: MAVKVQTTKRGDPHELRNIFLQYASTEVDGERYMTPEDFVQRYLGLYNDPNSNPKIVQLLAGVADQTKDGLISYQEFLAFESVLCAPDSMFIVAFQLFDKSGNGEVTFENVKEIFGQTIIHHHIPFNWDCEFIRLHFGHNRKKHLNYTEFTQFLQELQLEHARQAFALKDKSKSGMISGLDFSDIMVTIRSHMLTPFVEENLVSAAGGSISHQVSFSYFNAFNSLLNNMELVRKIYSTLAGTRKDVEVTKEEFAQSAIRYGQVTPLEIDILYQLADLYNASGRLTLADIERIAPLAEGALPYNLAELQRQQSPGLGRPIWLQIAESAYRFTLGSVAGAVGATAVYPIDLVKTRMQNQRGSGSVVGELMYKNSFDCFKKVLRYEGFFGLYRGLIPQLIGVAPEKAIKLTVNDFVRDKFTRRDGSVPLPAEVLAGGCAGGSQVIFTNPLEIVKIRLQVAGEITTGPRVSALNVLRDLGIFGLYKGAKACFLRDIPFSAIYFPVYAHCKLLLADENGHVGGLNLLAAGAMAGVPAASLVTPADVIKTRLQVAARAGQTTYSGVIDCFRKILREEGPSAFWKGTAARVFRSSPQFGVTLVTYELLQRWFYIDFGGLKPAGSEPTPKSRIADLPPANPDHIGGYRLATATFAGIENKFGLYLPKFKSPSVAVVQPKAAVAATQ
# UniProt Q9BRY0: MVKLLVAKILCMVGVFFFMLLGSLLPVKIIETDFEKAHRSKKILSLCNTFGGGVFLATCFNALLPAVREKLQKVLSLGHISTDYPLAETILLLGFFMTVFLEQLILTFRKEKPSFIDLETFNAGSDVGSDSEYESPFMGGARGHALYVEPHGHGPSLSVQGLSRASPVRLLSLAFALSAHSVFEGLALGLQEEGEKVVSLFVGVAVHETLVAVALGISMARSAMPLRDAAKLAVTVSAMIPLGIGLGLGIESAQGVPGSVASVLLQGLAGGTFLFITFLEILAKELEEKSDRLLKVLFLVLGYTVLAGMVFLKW
# UniProt O43808: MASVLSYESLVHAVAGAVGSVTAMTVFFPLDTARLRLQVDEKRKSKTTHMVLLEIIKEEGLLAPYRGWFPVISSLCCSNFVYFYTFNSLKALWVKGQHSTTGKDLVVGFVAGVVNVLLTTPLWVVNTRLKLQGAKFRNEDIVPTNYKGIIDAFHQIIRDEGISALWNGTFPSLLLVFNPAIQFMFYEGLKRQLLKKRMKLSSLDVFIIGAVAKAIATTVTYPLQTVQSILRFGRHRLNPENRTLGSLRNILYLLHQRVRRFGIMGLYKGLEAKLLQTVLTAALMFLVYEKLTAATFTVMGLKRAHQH
# UniProt Q96DW6: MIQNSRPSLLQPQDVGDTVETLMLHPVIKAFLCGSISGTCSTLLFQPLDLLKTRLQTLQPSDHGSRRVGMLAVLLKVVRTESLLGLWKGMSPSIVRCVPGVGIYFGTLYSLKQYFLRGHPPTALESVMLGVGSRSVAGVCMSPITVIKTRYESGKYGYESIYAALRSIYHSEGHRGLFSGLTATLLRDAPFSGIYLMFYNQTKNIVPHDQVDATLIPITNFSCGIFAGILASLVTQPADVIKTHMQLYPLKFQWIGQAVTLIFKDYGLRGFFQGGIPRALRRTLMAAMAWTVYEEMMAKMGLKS
# UniProt P55011: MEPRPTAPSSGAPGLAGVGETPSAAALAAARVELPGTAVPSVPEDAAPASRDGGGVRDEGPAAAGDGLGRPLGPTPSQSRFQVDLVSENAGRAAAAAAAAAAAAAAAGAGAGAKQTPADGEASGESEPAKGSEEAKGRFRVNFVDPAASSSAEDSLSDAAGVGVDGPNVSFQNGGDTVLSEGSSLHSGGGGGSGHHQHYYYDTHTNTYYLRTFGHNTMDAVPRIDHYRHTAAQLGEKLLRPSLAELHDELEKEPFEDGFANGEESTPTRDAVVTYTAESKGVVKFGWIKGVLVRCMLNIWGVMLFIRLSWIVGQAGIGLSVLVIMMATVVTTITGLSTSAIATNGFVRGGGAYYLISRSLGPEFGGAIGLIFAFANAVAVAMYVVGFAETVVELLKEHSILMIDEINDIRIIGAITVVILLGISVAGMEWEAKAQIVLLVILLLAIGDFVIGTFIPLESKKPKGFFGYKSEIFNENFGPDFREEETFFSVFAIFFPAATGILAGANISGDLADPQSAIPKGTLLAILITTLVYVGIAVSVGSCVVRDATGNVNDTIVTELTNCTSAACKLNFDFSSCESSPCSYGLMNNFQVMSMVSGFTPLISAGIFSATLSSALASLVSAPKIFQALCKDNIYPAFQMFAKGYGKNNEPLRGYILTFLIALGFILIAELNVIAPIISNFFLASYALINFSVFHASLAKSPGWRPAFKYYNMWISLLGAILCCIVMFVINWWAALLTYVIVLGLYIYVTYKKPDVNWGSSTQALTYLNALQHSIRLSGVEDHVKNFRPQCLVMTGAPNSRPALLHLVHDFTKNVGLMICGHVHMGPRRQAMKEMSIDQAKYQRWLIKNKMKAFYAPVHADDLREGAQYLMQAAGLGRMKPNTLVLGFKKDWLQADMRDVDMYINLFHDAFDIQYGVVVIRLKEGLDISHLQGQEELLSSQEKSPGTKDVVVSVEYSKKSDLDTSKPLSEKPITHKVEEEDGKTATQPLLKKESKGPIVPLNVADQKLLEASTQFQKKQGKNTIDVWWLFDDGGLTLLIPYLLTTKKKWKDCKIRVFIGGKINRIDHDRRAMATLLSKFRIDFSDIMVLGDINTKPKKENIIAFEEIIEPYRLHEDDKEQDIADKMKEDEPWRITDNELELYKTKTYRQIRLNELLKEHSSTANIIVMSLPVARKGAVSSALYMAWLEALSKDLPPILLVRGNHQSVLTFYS
# This is one part of the list.
# How the values were obtained:
# Experiment in all cases: log2 fold change, soluble protein after heating vs DMSO (PISA); higher = thermal stabilisation; K562 cells, 10 uM, 30 min; active = over 0.2 and 3.5 SD of the protein, either way, in both replicates (recomputed)
# [1] = compound: NC(=O)Nc1cc(-c2cccc(F)c2)sc1C(=O)N[C@H]1CCCNC1
# Procedure, shortened: (§1)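 K562 cells at 2×10^6 cells/mL were exposed to 10 μM compound for 30 min, then aliquots were heated for 3 min across 48°C-58°C, pooled, and extracted in PBS containing 0.5% NP-40 at 4°C. The supernatant after 21,000xg for 90 min was taken as soluble protein and measured by TMTpro 16plex LC-MS/MS with channel sums equalised. Thermal stability is reported relative to control samples, with values from duplicates. Fold changes are given on a log2 scale.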
# [2] = compound: NC(=O)c1cnc(N[C@@H]2CCCC[C@@H]2N)nc1Nc1cccc(-n2nccn2)c1
# Procedure, shortened: as §1
# [3] = compound: NC1(c2ccc(-c3nc4ccn5c(=O)[nH]nc5c4cc3-c3ccccc3)cc2)CCC1
# Procedure, shortened: as §1
# [4] = compound: NCC(=O)Nc1ccc(-n2nc(C(F)(F)F)cc2-c2ccc3c(ccc4ccccc43)c2)cc1
# Procedure, shortened: as §1
# [5] = compound: Nc1ccccc1NC(=O)c1ccc(CNC(=O)OCc2cccnc2)cc1 [entinostat]
# Procedure, shortened: as §1
# [6] = compound: O=C(CCCCCCC(=O)Nc1ccccc1)NO [vorinostat]
# Procedure, shortened: as §1
# [7] = compound: O=C(CCCCCCNC(=O)c1cnc(N(c2ccccc2)c2ccccc2Cl)nc1)NO [citarinostat]
# Procedure, shortened: as §1
# [8] = compound: O=C(O)c1ccc2c(c1)nc(Nc1cccc(Cl)c1)c1ccncc12 [silmitasertib]
# Procedure, shortened: as §1
# [9] = compound: O=C1NC(=O)C(c2cnc3ccccn23)=C1c1cn2c3c(cc(F)cc13)CN(C(=O)N1CCCCC1)CC2
# Procedure, shortened: as §1
# [10] = compound: c1cc(OCCN2CCCCC2)cc(-c2n[nH]c3ccc(-c4nnc[nH]4)cc23)c1
# Procedure, shortened: as §1
Target,log2 fold change [1],log2 fold change [2],log2 fold change [3],log2 fold change [4],log2 fold change [5],log2 fold change [6],log2 fold change [7],log2 fold change [8],log2 fold change [9],log2 fold change [10]
SLC37A4 isoform 2 (UniProt O43826),inactive: 0.017,inactive: 0.022,inactive: 0.006,inactive: -0.02,inactive: -0.007,inactive: -0.002,inactive: 0.013,inactive: 0.044,inactive: 0.009,inactive: -0.001
SLC38A1 (UniProt Q9H2H9),inactive: -0.06,inactive: 0.029,inactive: 0.052,inactive: 0.007,inactive: -0.033,inactive: -0.01,inactive: 0.047,inactive: 0.061,inactive: -0.022,inactive: -0.103
SLC25A10 isoform 2 (UniProt Q9UBX3),inactive: 0.039,inactive: 0.053,inactive: 0.012,inactive: 0.012,inactive: -0.015,inactive: 0.01,inactive: 0.019,inactive: 0.044,inactive: 0.145,inactive: -0.009
SLC7A5 (UniProt Q01650),inactive: -0.012,inactive: 0.019,inactive: 0.144,inactive: 0.042,inactive: 0.03,inactive: -0.08,inactive: -0.018,inactive: -0.014,inactive: -0.007,inactive: -0.094
SLC25A40 (UniProt Q8TBP6),inactive: -0.023,inactive: -0.001,inactive: 0,inactive: 0,inactive: -0.022,inactive: 0.04,inactive: 0.033,inactive: -0.057,inactive: -0.063,inactive: 0.003
SLC44A2 isoform 2 (UniProt Q8IWA5),inactive: -0.086,inactive: 0.168,inactive: 0.128,inactive: 0.05,inactive: -0.06,inactive: -0.006,inactive: 0.091,inactive: -0.071,inactive: -0.075,inactive: -0.289
SLC38A9 (UniProt Q8NBW4),inactive: -0.129,inactive: 0.009,inactive: -0.113,inactive: -0.025,inactive: 0.034,inactive: 0.007,inactive: 0.004,inactive: 0.035,inactive: -0.044,inactive: -0.043
SLC30A6 isoform 2 (UniProt Q6NXT4),inactive: -0.008,inactive: -0.052,inactive: -0.141,inactive: -0.159,inactive: 0.062,inactive: 0.14,inactive: 0.012,inactive: -0.027,inactive: -0.013,inactive: -0.011
SLC25A1 (UniProt P53007),inactive: -0.006,inactive: 0.044,inactive: 0.003,inactive: 0.051,inactive: 0.001,inactive: -0.033,inactive: 0.032,inactive: -0.002,inactive: 0.003,inactive: -0.021
SLC12A9 (UniProt Q9BXP2),inactive: 0.05,inactive: -0.142,active: -0.313,inactive: -0.03,inactive: 0.021,inactive: 0.027,inactive: 0.035,inactive: 0.017,inactive: -0.081,inactive: -0.062
SLC30A1 (UniProt Q9Y6M5),inactive: -0.114,inactive: 0.135,inactive: 0.025,inactive: 0.144,inactive: -0.003,inactive: -0.012,inactive: 0.02,inactive: 0.026,inactive: -0.002,inactive: -0.039
SLC25A31 (UniProt Q9H0C2),inactive: 0.041,inactive: 0.036,inactive: -0.013,inactive: 0.026,inactive: 0.018,inactive: -0.01,inactive: 0.049,inactive: -0.019,inactive: 0.022,inactive: -0.015
SLC2A1 (UniProt P11166),inactive: -0.107,inactive: 0.02,inactive: 0.081,inactive: 0.012,inactive: -0.054,inactive: -0.041,inactive: -0.015,inactive: -0.027,inactive: -0.046,inactive: -0.046
SLC25A19 (UniProt Q9HC21),inactive: -0.006,inactive: 0.012,inactive: 0.003,inactive: -0.021,inactive: -0.011,inactive: 0.01,inactive: 0.009,inactive: 0.016,inactive: -0.03,inactive: -0.01
SLC25A15 (UniProt Q9Y619),inactive: 0.036,inactive: -0.025,inactive: -0.018,inactive: -0.009,inactive: -0.035,inactive: -0.089,inactive: 0.031,inactive: 0.019,inactive: -0.008,inactive: -0.102
SLC25A12 (UniProt O75746),inactive: -0.023,inactive: 0,inactive: 0.001,inactive: -0.022,inactive: -0.012,inactive: -0.008,inactive: -0.011,inactive: 0.005,inactive: -0.013,inactive: 0.037
SLC25A4 (UniProt P12235),inactive: -0.012,inactive: -0.035,inactive: -0.056,inactive: -0.006,inactive: -0.019,inactive: -0.12,inactive: -0.021,inactive: 0.009,inactive: -0.025,inactive: -0.002
SLC39A3 (UniProt Q9BRY0),inactive: -0.06,inactive: -0.007,inactive: -0.121,inactive: -0.056,inactive: -0.019,inactive: -0.061,inactive: 0.046,inactive: 0.068,inactive: 0.001,inactive: -0.113
SLC25A17 (UniProt O43808),inactive: 0.164,inactive: 0.046,inactive: -0.011,inactive: 0,inactive: 0.045,inactive: 0,inactive: 0.069,inactive: 0.088,inactive: 0.149,inactive: -0.097
SLC25A46 (UniProt Q96AG3),inactive: -0.023,inactive: -0.032,inactive: 0.023,inactive: -0.014,inactive: -0.074,inactive: 0.122,inactive: -0.03,inactive: 0.018,inactive: -0.073,inactive: -0.012
SLC1A4 (UniProt P43007),inactive: 0.045,inactive: 0.077,inactive: 0.097,inactive: 0.048,inactive: -0.034,inactive: -0.07,inactive: 0.055,inactive: -0.009,inactive: -0.064,inactive: -0.043
SLC29A2 (UniProt Q14542),inactive: -0.081,inactive: 0.148,inactive: 0.081,inactive: 0.022,inactive: -0.027,inactive: 0.046,inactive: 0.017,inactive: -0.03,inactive: 0.086,inactive: -0.028
SLC4A2 (UniProt P04920),inactive: -0.048,inactive: -0.055,active: -0.204,inactive: -0.123,inactive: 0.028,inactive: 0.023,inactive: -0.072,inactive: 0.019,inactive: 0.016,inactive: -0.084
SLC25A38 (UniProt Q96DW6),inactive: 0.035,inactive: -0.068,inactive: -0.21,inactive: 0.06,inactive: -0.049,inactive: -0.096,inactive: 0.02,inactive: 0.069,inactive: -0.022,inactive: -0.028
SLC38A7 (UniProt Q9NVC3),inactive: -0.017,inactive: 0.002,inactive: -0.299,inactive: 0.197,inactive: -0.066,inactive: 0.11,inactive: 0.085,inactive: 0.022,inactive: -0.107,inactive: -0.004
SLC4A1 (UniProt P02730),inactive: -0.035,inactive: 0.149,inactive: -0.03,inactive: 0.032,inactive: -0.015,inactive: 0,inactive: 0.017,inactive: -0.002,inactive: 0.042,inactive: -0.087
SLC12A2 (UniProt P55011),inactive: -0.018,inactive: 0.026,inactive: 0.047,inactive: 0.004,inactive: -0.009,inactive: -0.001,inactive: 0.032,inactive: -0.001,inactive: -0.032,inactive: -0.022
SLC39A14 (UniProt Q15043),inactive: -0.037,inactive: 0.071,inactive: -0.001,inactive: -0.002,inactive: -0.081,inactive: -0.026,inactive: 0.022,inactive: -0.011,inactive: -0.02,inactive: 0.03
SLC25A39 (UniProt Q9BZJ4),inactive: 0.059,inactive: -0.183,inactive: -0.345,inactive: -0.105,inactive: 0.061,inactive: -0.05,inactive: -0.015,inactive: 0.023,inactive: 0.073,inactive: 0.223

# 2 records drawn at random from the list so far, as already listed:
Target,log2 fold change [1],log2 fold change [2],log2 fold change [3],log2 fold change [4],log2 fold change [5],log2 fold change [6],log2 fold change [7],log2 fold change [8],log2 fold change [9],log2 fold change [10]
SLC25A12 (UniProt O75746),inactive: -0.023,inactive: 0,inactive: 0.001,inactive: -0.022,inactive: -0.012,inactive: -0.008,inactive: -0.011,inactive: 0.005,inactive: -0.013,inactive: 0.037
SLC25A38 (UniProt Q96DW6),inactive: 0.035,inactive: -0.068,inactive: -0.21,inactive: 0.06,inactive: -0.049,inactive: -0.096,inactive: 0.02,inactive: 0.069,inactive: -0.022,inactive: -0.028
